The text below walks through data of publication PMC12907299.

No constants are given. Whether binding was seen depends on the method and setting. Binding calls can cover weak binding; strength is not graded here.

The target in test [1] is T1, AtARF7 (Arabidopsis thaliana) (UniProt P93022).
T1 sequence: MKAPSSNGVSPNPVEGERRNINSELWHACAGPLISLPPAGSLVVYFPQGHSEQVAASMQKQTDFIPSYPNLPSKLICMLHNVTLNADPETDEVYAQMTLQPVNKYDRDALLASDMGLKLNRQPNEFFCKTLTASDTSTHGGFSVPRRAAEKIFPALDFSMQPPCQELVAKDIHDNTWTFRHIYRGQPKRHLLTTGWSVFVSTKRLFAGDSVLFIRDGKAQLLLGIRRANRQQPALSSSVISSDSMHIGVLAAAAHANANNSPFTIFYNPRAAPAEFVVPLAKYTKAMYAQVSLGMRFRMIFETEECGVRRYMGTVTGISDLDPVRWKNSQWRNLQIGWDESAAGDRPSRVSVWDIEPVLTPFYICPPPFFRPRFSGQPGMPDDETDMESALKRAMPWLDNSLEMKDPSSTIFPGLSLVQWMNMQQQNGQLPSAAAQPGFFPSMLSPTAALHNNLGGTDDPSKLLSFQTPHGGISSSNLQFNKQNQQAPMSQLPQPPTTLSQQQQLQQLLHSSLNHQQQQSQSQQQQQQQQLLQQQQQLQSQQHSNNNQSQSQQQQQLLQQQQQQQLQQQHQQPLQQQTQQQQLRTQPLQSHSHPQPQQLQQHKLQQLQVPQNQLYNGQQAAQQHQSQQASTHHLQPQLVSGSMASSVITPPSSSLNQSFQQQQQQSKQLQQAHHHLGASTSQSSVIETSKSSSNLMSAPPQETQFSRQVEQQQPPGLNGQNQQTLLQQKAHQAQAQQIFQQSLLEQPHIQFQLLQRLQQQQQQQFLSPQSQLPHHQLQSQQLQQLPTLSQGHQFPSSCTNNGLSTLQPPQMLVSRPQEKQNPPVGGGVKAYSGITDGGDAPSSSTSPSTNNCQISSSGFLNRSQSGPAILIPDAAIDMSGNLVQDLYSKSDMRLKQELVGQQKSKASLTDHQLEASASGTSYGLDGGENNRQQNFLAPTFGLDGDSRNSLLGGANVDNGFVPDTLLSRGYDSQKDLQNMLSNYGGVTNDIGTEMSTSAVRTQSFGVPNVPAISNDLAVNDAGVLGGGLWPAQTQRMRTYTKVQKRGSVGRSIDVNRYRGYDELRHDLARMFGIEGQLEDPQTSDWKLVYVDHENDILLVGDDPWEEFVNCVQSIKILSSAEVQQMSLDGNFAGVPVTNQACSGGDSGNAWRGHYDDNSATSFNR
In words: two-hybrid; GAL4 system; BnaREM as prey (pGAD, activation domain) against AtARF7 and AtARF19 as bait (pGBK, DNA-binding domain); medium lacking Ade, His, Trp and Leu with 100 mM 3-AT.

The target in test [2] is T2, AtARF19 (Arabidopsis thaliana) (UniProt Q8RYC8).
T2 sequence: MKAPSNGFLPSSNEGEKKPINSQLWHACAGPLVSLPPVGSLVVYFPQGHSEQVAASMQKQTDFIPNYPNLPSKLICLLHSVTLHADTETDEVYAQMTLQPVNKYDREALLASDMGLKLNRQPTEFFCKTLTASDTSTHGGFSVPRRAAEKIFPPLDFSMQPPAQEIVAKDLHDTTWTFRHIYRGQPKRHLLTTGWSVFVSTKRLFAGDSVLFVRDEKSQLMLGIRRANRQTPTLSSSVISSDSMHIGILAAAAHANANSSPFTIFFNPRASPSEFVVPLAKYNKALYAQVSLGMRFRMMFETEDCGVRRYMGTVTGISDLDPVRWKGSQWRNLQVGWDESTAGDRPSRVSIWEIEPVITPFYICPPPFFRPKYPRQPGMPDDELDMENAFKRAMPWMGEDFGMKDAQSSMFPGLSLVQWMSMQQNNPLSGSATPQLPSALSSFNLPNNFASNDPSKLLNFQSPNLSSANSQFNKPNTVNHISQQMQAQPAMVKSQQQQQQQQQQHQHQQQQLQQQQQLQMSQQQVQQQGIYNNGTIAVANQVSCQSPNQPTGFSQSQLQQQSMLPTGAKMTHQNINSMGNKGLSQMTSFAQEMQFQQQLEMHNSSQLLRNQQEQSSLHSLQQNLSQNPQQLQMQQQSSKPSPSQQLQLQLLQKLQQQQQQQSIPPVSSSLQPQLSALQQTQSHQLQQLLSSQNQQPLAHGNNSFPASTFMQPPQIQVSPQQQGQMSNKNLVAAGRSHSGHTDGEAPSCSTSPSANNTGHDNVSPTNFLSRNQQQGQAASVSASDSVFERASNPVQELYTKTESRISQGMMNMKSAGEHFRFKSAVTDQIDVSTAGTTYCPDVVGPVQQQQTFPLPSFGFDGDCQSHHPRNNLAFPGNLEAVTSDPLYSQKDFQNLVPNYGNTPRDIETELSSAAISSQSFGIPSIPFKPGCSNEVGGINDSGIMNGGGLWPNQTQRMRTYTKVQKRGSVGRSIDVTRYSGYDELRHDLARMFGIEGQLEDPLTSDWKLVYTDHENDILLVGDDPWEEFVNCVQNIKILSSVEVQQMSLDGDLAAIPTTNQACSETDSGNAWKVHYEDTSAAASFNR
Described as above.

As to BnaREM37-A1 (Brassica napus), the binding entry is reported as “no binding” in test [1] and “binds” in test [2].

As to BnaREM34-A1 (Brassica napus), the binding entry in test [1] was “no binding”; in test [2], “binds”.

Consider BnaREM34-A3 (Brassica napus), for which the binding entry is given as “no binding” in test [1] and “binds” in test [2].

For the substance BnaREM35/REM36-A1 (Brassica napus), the binding entry in test [1] and in test [2] was “binds” throughout.
